How the values were obtained:
Format in all cases: physicochemical
[1] = Immersion corrosion testing of metals (modified ASTM G 31-72); conditions: Stainless Steel 304; 85% by weight in water, no corrosion inhibitor, 45-46° C., 168 hours
[2] = as above; conditions: Aluminum; 85% by weight in water, no corrosion inhibitor, 45-46° C., 168 hours
[3] = as above; conditions: Mild Steel C1020; 85% by weight in water, no corrosion inhibitor, 45-46° C., 168 hours

Compound | Corrosion Rate [1] | Corrosion Rate [2] | Corrosion Rate [3]
NC(N)=O.O=S(=O)(O)O [AMADS, 1-aminomethanamide dihydrogen tetraoxosulfate] | 0.0090 in/yr | 0.1947 in/yr | 0.0078 in/yr
diaminomethanalethanoate complexes [DAMALEX] | 0.0001 in/yr | 0.0041 in/yr | 0.1204 in/yr

— patent publication US12714102B2, “Use of diaminomethanal carboxylic acid complexes as agricultural spray adjuvants” (priority 2021, dated 2026)
